Patent EP0525960B1, “Use of rapamycin for the treatment of adult T-cell leukemia/lymphoma” (AMERICAN HOME PRODUCTS CORPORATION, priority 1991, dated 1993)
At least one structure is not confirmed: it was looked up by name or label, or the drawing left a doubt.

Tested on: ten human HTLV-1 transformed T-cell lines
Test: Inhibition of ATL cell proliferation, summary over the panel of ten cell lines
Format: cell-based
Conditions: at a concentration of 100 nM or greater
Description: The effect of rapamycin on ATL was established in an in vitro standard pharmacological test procedure using ten human HTLV-1 transformed T-cell lines cultured from ATL patients. These cell lines are presently the best models for ATL in humans. Cyclosporin A (CsA) was also evaluated for the purpose of comparison. The procedure used and results obtained are described below.
ATL cell lines were established according to known literature procedures. ATL5S, ATL3I, and ATL1K were established according to the method of Hoshino [Proc. Natl. Acad. Sci, 80: 6061(1983)]. The cell lines 31008, 31009, 31016 and AT(EGG) were established from peripheral blood of HTLV-1 infected individuals via co-culture with cord blood lymphocytes. The cell line MALN was isolated from lymphoid tumor tissue of an HTLV-1 infected ATL patient seen at Jackson Memorial/University of Miami Medical Center. [Harrington, W.J., Jr., J. Acq. Imm. Def. Dis., 4: 284 (1991)]. The primary cultures BL and GP were initiated from peripheral blood of ATL patients. […]
Cells were adjusted to a concentration of 1x10⁶ cells/mL in RPMI 1640 with 15% fetal bovine serum and were supplemented with 50 U/mL penicillin, 50 µg/mL streptomycin, and 2 mM glutamine. […] Drug concentrations evaluated ranged from 1µM to 100 fM. […] Thymidine incorporation was measured by liquid scintillation counting, and the results expressed in counts per minute (cpm). […]

Structure (SMILES): CO[C@H]1C[C@@H]2CC[C@@H](C)[C@@](O)(O2)C(=O)C(=O)N2CCCC[C@H]2C(=O)O[C@H]([C@H](C)C[C@@H]2CC[C@@H](O)[C@H](OC)C2)CC(=O)[C@H](C)/C=C(\C)[C@@H](O)[C@@H](OC)C(=O)[C@H](C)C[C@H](C)/C=C/C=C/C=C/1C [Rapamycin]
- ATL cell lines in which proliferation was inhibited: 8 of the 10
